Measured values from patent US20200199250A1 (KYMAB, published 2020).
No constants are given. Whether binding was seen depends on the method and setting. Some binding calls cover weakened binding; strength is not graded here.

The chains behind the UniProt entries cited, without tags or fusion partners. Where a name states a change or a piece, a line headed by the entry shows the natural chain unless it says otherwise.
UniProt P00742: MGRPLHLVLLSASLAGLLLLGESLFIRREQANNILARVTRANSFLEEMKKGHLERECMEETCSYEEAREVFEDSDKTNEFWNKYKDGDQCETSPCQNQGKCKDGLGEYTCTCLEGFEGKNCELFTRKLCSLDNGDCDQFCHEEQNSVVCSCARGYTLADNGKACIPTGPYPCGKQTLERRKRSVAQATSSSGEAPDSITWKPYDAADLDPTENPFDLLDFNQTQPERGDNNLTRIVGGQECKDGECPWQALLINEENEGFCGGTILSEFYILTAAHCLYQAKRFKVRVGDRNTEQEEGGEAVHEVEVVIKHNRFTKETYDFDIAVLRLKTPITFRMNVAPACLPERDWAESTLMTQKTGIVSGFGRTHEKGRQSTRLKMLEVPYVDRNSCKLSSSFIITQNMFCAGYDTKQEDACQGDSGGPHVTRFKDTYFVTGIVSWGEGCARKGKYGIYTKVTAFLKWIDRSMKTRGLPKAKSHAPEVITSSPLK

Biological target: human factor X (human, UniProt P00742 41-179; P00742 183-488)
Assay: SPR as in Example 10, IgG captured, FX analyte

binding | Binder
binds | TINA-0616.0128 (antibody, V domains shown) VH: QVQLIQSGAEVKKPGASVKVSCKASRYSFTSYYMHWVRQAPGQGLEWMGIINPKSGSTSYAQKFQGRVTMTRDTSTSTVYMELSSLRSEDTAVYYCARDGYGSSSRCIQLWGQGTLVTVSS VL: SYVLTQPPSVSVAPGETARITCGGDNIGRKSVYWYQQKSGQAPVLVIYYDSDRPSGIPERFSGSNSGNTATLTISRVEAGDEADYYCQVWDGSSDHWVFGGGTKLTVL
binds | TINA-0638.0128 (antibody, V domains shown) VH: QVQLIQSGAEVKKPGASVKVSCKASRYSFTSYYMHWVRQAPGQGLEWMGIINPKSGSTSYAQKFQGRVTMTRDTSTSTVYMELSSLRSEDTAVYYCARDGYGSSSRCLMLWGQGTLVTVSS VL: SYVLTQPPSVSVAPGETARITCGGDNIGRKSVYWYQQKSGQAPVLVIYYDSDRPSGIPERFSGSNSGNTATLTISRVEAGDEADYYCQVWDGSSDHWVFGGGTKLTVL
